Source: patent US6087334A (Amylin Pharmaceuticals, Inc., priority 1998, dated 2000)
Some peptides are written in HELM: one residue between dots, names in brackets for other building blocks, links after the first $. The same purity stands for every peptide and may come from a single statement.

Assay: general procedure: Fmoc solid-phase peptide synthesis; 4-(2'-4'-dimethoxyphenyl)-Fmoc aminomethyl phenoxy acetamide norleucine MBHA resin (Novabiochem, 0.55 mmole/g); HATU / diisopropylethylamine
Conditions: whole synthesis

| Substance | crude purity (method not given) | difficulty met |
| --- | --- | --- |
| PEPTIDE1{K.C.N.T.A.T.C.A.T.A.R.L.A.A.F.L.A.R.S.S.G.Y.[am]}$PEPTIDE1,PEPTIDE1,2:R3-7:R3$$$V2.0 | about 75% | at some positions coupling was less efficient than expected and double couplings were required |
| PEPTIDE1{L.S.T.A.A.T.A.R.L.A.A.F.L.A.R.S.[am]}$$$$V2.0 | about 75% | at some positions coupling was less efficient than expected and double couplings were required |
| PEPTIDE1{[isocaproyl].L.S.T.A.A.T.A.R.L.A.A.F.L.A.R.S.[am]}$$$$V2.0 | about 75% | at some positions coupling was less efficient than expected and double couplings were required |
